In patent US20200138764A1, “METHODS AND DEVICES FOR ACTIVATING ADIPOSE TISSUE” (The Procter & Gamble Company, priority 2018, published 2020):
Some entries share one result that the patent states for a list of compounds.

Tests used:
[1] = tested on: adipocytes; assay: Real Time PCR analysis of adipocytes, in vitro; assay type: cell-based, human; conditions: upper bound over all proteins, relative to untreated control
Experimental: For Real Time PCR analysis of adipocytes, cells from cultures grown in 24 well plates were collected. RNA was isolated using RNeasy Kit (Cat 74104, Qiagen, Germantown, Md.) using manufacturer's protocol. RNA was quantitated using the Nanodrop 1000 (Thermofisher, Waltham, Mass.). cDNA formation was carried out using PowerUp SYBR™ Green Master Mix and real time PCR carried out on QuantStudio 6 machine (ThermoFisher, Waltham, Mass.) per manufacturer protocol. ΔΔCT analysis was done using the Expression Suite software (ThermoFisher) purchased with the instrument.
TABLE 2 used Real Time PCR to determine which proteins were expressed in adipocytes upon treatment with activating compounds. […] Real Time PCR values were relative to a control sample that was not treated with any activating compounds. […] In WS-5 and Menthol, no Real Time PCR value was over 2.0, which indicated only slight changes in mRNA expression.

[2] = target: human TRPM8; assay: TRPM8 Protocol-FLIPR Assay (intracellular Ca2+); assay type: cell-based; conditions: HEK-293 cells stably transfected with human TRPM8, Fluo-4 AM, relative to benchmark agonist WS-5
Experimental: To determine whether TRPM8 is activated, the intracellular calcium ion (Ca^2+) level was measured from transfected cells with the TRPM8 receptor sequence (SEQ ID NO: 1). HEK-293 (human embryonic kidney) cells stably transfected with human TRPM8 were grown in 15 mL growth medium (high glucose DMEM (Dulbecco's Modification of Eagle's Medium) supplemented with 10% FBS (fetal bovine serum), 100 μg/mL penicillin/streptomycin, 5 μg/mL blasticindin, and 100 μg/mL zeocin) in a 75 cm^2 flask for 3 days at 37° C. in a mammalian cell culture incubator (Forma Scientific Model 3110, Marietta, Ohio) set at 5% CO2. […] Fluo-4 AM is a fluorescent dye used for quantifying cellular Ca^2+ concentrations in the 100 nM to 1 μM range. […]
The pelleted cells were re-suspended in 10 mL assay buffer and 90 μL aliquots (˜50,000 cells) per well delivered to a 96-well assay plate containing 10 μL of test compounds (1 mM in assay buffer, final concentration 100 μM) or buffer control and incubated at room temperature for 30 minutes. After 30 minutes, a plate (Falcon 353219, Corning Corning N.Y.) was placed into a fluorometric imaging plate reader (FLIPR384 from Molecular Devices, Sunnyvale, Calif.) and basal fluorescence recorded (excitation wave length 488 nm and emission wave length 510 nm). Then 20 μL of 100 mM of TRPM8 agonist WS5 coolant in the assay buffer was added and fluorescence recorded. […]

Question: Which “Real Time PCR value (any of the proteins of TABLE 2)” value [1] does the source give for `CCOC(=O)CNC(=O)[C@@H]1C[C@H](C)CC[C@H]1C(C)C` [WS-5] here?
Answer: The value was at most 2.0.

Question: How did the IC50 [2] turn out when `CC(C)[C@@H]1CC[C@@H](C)C[C@H]1C(=O)NC[C@@H](NC(=O)[C@@H](C)N)c1ccccc1` [Formula IV] was run?
Answer: The IC50 was 8 to 10 nM.

Question: With `CC1CCC(C(C)C)C(O)C1` (stereo not shown) [Menthol] as the compound, how does the “Real Time PCR value (any of the proteins of TABLE 2)” value [1] read?
Answer: Its value is at most 2.0.

Question: With `CC(C)[C@@H]1CC[C@@H](C)C[C@H]1C(=O)NCC(NC(=O)[C@@H](C)N)c1ccccc1` (stereo partly shown) [Comparative Example 1] as the compound, how does the IC50 [2] read?
Answer: The IC50 was 8 to 10 nM.
